Experimental findings from the supplement of paper PMC10849652 are described below.

Chains of the proteins cited; added tags and fusions are not shown. Lines headed by an entry give the natural chain unless they say otherwise; changes in a name come on top.
UniProt Q06203, whole entry, looked up: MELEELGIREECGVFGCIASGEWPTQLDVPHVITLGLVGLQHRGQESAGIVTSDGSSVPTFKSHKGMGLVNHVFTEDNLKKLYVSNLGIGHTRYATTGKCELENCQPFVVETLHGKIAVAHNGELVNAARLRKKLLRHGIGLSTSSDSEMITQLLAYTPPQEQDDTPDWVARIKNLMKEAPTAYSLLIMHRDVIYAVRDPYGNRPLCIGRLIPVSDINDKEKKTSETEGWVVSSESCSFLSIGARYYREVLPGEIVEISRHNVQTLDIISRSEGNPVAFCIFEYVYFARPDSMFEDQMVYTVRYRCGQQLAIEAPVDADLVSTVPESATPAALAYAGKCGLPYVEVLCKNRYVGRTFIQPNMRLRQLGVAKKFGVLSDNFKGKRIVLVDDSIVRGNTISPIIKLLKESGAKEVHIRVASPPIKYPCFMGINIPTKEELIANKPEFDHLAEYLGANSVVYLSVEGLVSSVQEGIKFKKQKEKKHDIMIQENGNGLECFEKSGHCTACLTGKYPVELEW
UniProt O95707: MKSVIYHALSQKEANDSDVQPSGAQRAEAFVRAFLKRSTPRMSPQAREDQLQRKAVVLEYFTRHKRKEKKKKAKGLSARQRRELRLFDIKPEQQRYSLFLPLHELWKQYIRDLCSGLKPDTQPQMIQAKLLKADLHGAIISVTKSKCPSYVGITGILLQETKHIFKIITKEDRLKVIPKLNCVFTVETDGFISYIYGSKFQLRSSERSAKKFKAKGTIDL
UniProt Q9Y2G5: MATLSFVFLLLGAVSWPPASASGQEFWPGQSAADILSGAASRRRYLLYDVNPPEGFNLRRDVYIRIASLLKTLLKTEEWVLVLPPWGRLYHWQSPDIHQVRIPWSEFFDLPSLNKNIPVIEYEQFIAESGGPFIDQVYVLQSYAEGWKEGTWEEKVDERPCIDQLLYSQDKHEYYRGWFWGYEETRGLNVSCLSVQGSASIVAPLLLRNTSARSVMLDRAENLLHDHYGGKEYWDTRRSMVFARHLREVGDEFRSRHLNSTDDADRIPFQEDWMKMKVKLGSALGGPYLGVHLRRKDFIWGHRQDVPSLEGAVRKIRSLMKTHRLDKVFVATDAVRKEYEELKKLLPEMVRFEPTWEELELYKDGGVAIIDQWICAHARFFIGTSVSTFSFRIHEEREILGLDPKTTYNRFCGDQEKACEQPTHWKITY
UniProt O43157, whole entry, looked up: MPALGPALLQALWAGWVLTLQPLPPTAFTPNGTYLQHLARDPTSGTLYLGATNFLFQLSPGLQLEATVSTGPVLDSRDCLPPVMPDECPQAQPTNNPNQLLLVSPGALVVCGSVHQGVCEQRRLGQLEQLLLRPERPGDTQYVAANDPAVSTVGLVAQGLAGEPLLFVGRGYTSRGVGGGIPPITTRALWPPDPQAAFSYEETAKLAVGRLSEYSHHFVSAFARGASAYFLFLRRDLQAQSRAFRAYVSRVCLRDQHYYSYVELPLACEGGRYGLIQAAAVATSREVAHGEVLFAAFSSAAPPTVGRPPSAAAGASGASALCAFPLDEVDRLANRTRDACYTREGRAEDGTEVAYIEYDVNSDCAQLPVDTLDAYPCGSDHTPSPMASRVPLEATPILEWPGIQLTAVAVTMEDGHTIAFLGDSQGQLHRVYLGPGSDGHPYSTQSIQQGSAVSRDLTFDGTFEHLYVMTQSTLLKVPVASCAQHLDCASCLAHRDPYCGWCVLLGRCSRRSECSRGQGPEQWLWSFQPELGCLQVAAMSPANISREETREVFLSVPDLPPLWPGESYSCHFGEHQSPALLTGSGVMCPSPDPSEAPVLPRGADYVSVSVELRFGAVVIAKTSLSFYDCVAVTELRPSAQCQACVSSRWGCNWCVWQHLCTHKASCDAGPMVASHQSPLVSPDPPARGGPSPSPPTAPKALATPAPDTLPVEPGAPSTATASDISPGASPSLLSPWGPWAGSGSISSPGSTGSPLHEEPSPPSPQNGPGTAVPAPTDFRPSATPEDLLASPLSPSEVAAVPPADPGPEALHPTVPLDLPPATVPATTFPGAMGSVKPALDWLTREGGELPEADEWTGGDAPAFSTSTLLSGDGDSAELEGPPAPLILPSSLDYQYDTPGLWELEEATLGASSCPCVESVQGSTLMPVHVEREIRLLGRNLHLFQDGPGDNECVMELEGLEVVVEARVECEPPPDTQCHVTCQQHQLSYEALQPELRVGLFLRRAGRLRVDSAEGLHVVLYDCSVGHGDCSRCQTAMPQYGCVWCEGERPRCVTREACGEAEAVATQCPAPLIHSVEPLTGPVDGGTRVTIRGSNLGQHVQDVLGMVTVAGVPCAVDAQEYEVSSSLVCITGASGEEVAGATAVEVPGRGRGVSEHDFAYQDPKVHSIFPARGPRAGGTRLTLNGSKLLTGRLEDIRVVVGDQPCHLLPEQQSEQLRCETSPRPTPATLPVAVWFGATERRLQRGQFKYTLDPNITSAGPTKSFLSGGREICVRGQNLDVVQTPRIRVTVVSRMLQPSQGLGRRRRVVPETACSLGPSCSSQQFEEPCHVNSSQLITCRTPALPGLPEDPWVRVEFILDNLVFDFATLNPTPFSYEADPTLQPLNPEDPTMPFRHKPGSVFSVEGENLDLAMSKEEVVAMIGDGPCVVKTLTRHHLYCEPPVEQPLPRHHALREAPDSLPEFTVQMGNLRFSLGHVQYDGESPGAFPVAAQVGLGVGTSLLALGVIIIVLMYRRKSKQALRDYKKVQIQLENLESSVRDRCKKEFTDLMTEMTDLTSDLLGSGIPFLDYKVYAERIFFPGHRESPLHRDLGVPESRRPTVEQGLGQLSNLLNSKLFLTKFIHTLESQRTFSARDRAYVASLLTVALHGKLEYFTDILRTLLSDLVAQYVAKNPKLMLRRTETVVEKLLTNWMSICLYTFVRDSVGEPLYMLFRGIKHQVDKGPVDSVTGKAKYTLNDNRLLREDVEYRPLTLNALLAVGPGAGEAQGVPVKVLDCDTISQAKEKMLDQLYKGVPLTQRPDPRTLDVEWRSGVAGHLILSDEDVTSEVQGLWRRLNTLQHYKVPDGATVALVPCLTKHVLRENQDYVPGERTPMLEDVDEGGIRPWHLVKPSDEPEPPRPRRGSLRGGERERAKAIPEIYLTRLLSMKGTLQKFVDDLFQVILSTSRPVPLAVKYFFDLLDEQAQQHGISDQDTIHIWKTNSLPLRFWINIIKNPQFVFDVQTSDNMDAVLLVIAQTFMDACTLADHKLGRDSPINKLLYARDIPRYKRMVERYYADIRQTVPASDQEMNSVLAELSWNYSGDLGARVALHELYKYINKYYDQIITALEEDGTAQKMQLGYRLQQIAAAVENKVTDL
UniProt Q9H307: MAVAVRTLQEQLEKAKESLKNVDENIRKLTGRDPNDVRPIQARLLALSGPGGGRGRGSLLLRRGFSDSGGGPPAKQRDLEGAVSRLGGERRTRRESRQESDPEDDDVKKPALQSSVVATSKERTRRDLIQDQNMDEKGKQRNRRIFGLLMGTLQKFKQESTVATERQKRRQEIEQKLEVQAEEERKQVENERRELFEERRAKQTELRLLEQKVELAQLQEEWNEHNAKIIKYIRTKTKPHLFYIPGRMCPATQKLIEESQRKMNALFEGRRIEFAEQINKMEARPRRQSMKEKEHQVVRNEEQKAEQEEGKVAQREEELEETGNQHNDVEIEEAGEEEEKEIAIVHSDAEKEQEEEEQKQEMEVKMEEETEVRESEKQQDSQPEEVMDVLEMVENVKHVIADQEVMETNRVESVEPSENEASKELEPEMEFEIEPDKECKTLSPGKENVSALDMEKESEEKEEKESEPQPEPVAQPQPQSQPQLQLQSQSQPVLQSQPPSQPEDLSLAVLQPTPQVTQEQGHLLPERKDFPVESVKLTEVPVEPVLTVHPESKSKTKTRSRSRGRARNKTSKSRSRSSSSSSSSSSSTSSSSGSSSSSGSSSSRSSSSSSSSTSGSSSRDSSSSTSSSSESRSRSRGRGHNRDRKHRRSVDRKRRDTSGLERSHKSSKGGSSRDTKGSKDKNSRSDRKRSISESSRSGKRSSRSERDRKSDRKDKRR
UniProt P0CG38, whole entry, looked up: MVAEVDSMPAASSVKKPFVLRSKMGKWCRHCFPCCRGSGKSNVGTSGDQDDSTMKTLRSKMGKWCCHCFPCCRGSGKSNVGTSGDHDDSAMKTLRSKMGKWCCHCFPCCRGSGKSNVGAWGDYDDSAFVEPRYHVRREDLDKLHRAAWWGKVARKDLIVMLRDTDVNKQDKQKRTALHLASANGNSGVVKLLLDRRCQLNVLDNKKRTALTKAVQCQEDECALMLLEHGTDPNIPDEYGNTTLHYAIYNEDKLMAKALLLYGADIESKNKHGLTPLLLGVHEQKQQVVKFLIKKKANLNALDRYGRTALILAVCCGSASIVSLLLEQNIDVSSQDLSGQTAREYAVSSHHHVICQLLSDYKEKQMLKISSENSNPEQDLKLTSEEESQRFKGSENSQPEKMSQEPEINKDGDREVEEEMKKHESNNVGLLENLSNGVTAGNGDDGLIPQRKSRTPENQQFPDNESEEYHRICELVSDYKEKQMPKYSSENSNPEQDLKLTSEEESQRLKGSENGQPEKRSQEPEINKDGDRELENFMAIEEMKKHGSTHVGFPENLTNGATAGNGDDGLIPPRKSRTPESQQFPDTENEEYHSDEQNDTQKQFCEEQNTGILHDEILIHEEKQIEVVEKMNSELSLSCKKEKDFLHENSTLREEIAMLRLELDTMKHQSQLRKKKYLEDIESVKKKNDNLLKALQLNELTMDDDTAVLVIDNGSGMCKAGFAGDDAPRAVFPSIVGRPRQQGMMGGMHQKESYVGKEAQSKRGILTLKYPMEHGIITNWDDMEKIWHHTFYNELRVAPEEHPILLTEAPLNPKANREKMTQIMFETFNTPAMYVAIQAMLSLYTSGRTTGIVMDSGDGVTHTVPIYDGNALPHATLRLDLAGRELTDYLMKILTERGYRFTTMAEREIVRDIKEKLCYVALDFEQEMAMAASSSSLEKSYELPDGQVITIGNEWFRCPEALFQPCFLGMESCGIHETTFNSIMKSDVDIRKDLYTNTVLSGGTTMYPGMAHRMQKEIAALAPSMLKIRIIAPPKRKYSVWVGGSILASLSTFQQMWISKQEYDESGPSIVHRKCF
UniProt Q04941: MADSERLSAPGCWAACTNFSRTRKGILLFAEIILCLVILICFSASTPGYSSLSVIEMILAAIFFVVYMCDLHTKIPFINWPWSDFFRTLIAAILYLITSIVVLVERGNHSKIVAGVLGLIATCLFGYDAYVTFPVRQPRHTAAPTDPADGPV
UniProt Q9NW61: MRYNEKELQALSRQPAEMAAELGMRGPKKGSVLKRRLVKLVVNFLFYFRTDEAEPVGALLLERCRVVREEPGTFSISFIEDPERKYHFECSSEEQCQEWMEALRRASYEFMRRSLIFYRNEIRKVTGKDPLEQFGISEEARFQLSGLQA
UniProt Q15063: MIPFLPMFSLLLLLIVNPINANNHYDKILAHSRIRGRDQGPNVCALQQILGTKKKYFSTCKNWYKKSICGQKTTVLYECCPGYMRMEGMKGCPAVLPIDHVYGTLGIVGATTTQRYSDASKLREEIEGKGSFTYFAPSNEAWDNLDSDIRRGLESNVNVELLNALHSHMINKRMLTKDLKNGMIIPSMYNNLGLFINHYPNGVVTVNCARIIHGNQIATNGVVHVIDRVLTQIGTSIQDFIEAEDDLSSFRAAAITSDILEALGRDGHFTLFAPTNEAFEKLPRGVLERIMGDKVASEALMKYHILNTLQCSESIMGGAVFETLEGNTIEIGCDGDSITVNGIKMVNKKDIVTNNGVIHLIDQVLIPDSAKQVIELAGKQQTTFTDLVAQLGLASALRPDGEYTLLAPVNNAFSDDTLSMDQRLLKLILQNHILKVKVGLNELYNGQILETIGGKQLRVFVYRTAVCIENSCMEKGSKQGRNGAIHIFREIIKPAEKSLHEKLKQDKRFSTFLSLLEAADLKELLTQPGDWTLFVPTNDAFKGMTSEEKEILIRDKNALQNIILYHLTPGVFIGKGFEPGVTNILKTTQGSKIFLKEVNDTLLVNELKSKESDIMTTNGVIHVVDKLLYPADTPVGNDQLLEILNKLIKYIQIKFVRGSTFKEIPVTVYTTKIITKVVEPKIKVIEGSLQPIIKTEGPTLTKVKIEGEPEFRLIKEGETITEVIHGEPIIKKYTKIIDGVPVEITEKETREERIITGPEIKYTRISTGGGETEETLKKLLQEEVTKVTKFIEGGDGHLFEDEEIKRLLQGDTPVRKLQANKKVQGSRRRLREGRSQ
UniProt Q15181: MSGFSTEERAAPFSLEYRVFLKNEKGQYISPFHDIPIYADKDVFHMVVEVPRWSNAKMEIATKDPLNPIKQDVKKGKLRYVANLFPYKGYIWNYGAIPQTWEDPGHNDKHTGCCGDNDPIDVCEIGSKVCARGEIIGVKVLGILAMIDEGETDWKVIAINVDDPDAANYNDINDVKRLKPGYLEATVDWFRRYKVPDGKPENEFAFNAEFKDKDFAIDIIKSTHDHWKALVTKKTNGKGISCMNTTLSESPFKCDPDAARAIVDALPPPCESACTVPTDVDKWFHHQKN

Some of the results follow.

Compound in the first test: O=C(CCCCCCC(=O)Nc1ccccc1)NO [vorinostat]
The experiment in a line: log2 fold change, soluble protein after heating vs DMSO (PISA); higher = thermal stabilisation; K562 lysate, 10 uM; active = over 0.2 and 3.5 SD of the protein, either way, in both replicates (recomputed). Summed up:
(§1)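 Dounce homogenisation of K562 pellets in PBS pH 7.4 with 1 mM MgCl2 produced a crude extract, used at 1 mg/mL protein. Exposure to 10 μM compound lasted 30 min, and aliquots were then heated for 3 min across 48°C-58°C, pooled and brought to 0.5% NP-40 at 4°C. The supernatant after 21,000xg for 90 min was quantified by TMTpro 16plex LC-MS/MS with channel sums equalised. Duplicate values are given as log-two fold change in thermal stability relative to solvent controls.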
As to POLR2A, A0A590UJN4, the log2 fold change was inactive: -0.085.

PPAT (UniProt Q06203): the log2 fold change was inactive: 0.095.

Regarding PNMA8A (UniProt Q86V59), the log2 fold change was inactive: 0.026.

With POTEKP (UniProt Q9BYX7), the log2 fold change was inactive: -0.001.

With POP4 (UniProt O95707), the log2 fold change was inactive: 0.084.

Turning to POLR2B (UniProt P30876), the log2 fold change is active: -0.344.

For the target PLXND1 (UniProt Q9Y4D7), the log2 fold change was inactive: -0.132.

On to POGK (UniProt Q9P215), for which the log2 fold change was inactive: -0.173.

POM121C (UniProt A8CG34): the log2 fold change was inactive: 0.077.

Take PLS1 (UniProt Q14651): the log2 fold change was inactive: 0.086.

Take POFUT2 (UniProt Q9Y2G5): the log2 fold change was inactive: 0.086.

In the case of PLIN3 (UniProt O60664), the log2 fold change is inactive: 0.108.

With POLG2 (UniProt J3KRM2), the log2 fold change is inactive: 0.25.

Take PLXNB1 (UniProt O43157): the log2 fold change is inactive: 0.048.

PPARGC1B (UniProt Q86YN6): the log2 fold change was inactive: -0.029.

PNN (UniProt Q9H307): the log2 fold change is inactive: 0.035.

For the target POTEI (UniProt P0CG38), the log2 fold change was inactive: -0.018.

PLP2 (UniProt Q04941): the log2 fold change is inactive: 0.28.

Take PLEKHJ1 (UniProt Q9NW61): the log2 fold change was inactive: -0.188.

POLR2J (UniProt P52435): the log2 fold change is inactive: -0.051.

Turning to POSTN (UniProt Q15063), the log2 fold change was inactive: -0.156.

For the target PPA1 (UniProt Q15181), the log2 fold change was inactive: 0.086.

For the target POC1B (UniProt Q8TC44), the log2 fold change is inactive: -0.081.

Compound in another test: O=C(O)c1ccc2c(c1)nc(Nc1cccc(Cl)c1)c1ccncc12 [silmitasertib]
The description is as above. In short, it runs like this: as §1
For POLR2A, A0A590UJN4, the log2 fold change was inactive: -0.014.

Consider PPAT (UniProt Q06203), for which the log2 fold change was inactive: 0.

Regarding PNMA8A (UniProt Q86V59), the log2 fold change was inactive: 0.021.

POTEKP (UniProt Q9BYX7): the log2 fold change is inactive: 0.702.

POP4 (UniProt O95707): the log2 fold change was inactive: 0.045.

Regarding POLR2B (UniProt P30876), the log2 fold change was inactive: 0.034.

On to PLXND1 (UniProt Q9Y4D7), for which the log2 fold change was inactive: 0.174.

Regarding POGK (UniProt Q9P215), the log2 fold change is inactive: 0.002.

For the target POM121C (UniProt A8CG34), the log2 fold change was inactive: -0.196.

Turning to PLS1 (UniProt Q14651), the log2 fold change was inactive: -0.024.

On to POFUT2 (UniProt Q9Y2G5), for which the log2 fold change is inactive: -0.034.

As for PLIN3 (UniProt O60664), the log2 fold change is inactive: -0.002.

As for POLG2 (UniProt J3KRM2), the log2 fold change is inactive: -0.171.

On to PLXNB1 (UniProt O43157), for which the log2 fold change is inactive: 0.004.

In the case of PPARGC1B (UniProt Q86YN6), the log2 fold change was inactive: -0.094.

For the target PNN (UniProt Q9H307), the log2 fold change was inactive: -0.088.

As for POTEI (UniProt P0CG38), the log2 fold change was inactive: 0.016.

Turning to PLP2 (UniProt Q04941), the log2 fold change is inactive: -0.198.

For the target PLEKHJ1 (UniProt Q9NW61), the log2 fold change was inactive: 0.025.

Take POLR2J (UniProt P52435): the log2 fold change was inactive: -0.007.

With POSTN (UniProt Q15063), the log2 fold change was inactive: -0.05.

With PPA1 (UniProt Q15181), the log2 fold change was inactive: 0.

Take POC1B (UniProt Q8TC44): the log2 fold change is inactive: 0.009.

Compound in the next test: O=C1NC(=O)C(c2cnc3ccccn23)=C1c1cn2c3c(cc(F)cc13)CN(C(=O)N1CCCCC1)CC2
The test is described as above. Summed up: as §1
Consider POLR2A, A0A590UJN4, for which the log2 fold change was inactive: 0.05.

With PPAT (UniProt Q06203), the log2 fold change is inactive: -0.012.

With POTEKP (UniProt Q9BYX7), the log2 fold change is inactive: 1.05.

Take PLEKHG4 (UniProt Q58EX7): the log2 fold change is inactive: -0.018.

In the case of PLEKHH2 (UniProt E5RGK1), the log2 fold change was inactive: -0.019.

As for POC1A (UniProt Q8NBT0), the log2 fold change was inactive: -0.4.

POP4 (UniProt O95707): the log2 fold change was inactive: 0.023.

With POLR2B (UniProt P30876), the log2 fold change was inactive: 0.024.

In the case of PLXND1 (UniProt Q9Y4D7), the log2 fold change was inactive: 0.018.

Turning to POGK (UniProt Q9P215), the log2 fold change is inactive: -0.083.

Turning to PPFIBP1 (UniProt Q86W92), the log2 fold change was inactive: 0.126.

With PLS1 (UniProt Q14651), the log2 fold change is inactive: 0.012.

As to POFUT2 (UniProt Q9Y2G5), the log2 fold change was inactive: -0.067.

As for POLR2K (UniProt P53803), the log2 fold change is inactive: -0.193.

For the target PLIN3 (UniProt O60664), the log2 fold change was inactive: -0.001.

Take PLXNB1 (UniProt O43157): the log2 fold change is inactive: -0.006.

PMS2CL (UniProt Q68D20): the log2 fold change is inactive: 0.11.

In the case of PNN (UniProt Q9H307), the log2 fold change is inactive: -0.055.

In the case of PNPLA4 (UniProt P41247), the log2 fold change is inactive: -0.093.

Take POTEI (UniProt P0CG38): the log2 fold change is inactive: 0.033.

With POLI (UniProt Q9UNA4), the log2 fold change is inactive: -0.047.

As for PLP2 (UniProt Q04941), the log2 fold change was inactive: -0.028.

Take PLEKHJ1 (UniProt Q9NW61): the log2 fold change is inactive: 0.049.

As to POLR2J (UniProt P52435), the log2 fold change was inactive: 0.128.

POSTN (UniProt Q15063): the log2 fold change is inactive: 0.062.

Regarding POGZ (UniProt Q7Z3K3), the log2 fold change was inactive: 0.038.

For the target PPA1 (UniProt Q15181), the log2 fold change is inactive: 0.018.

Consider PLSCR3 (UniProt Q9NRY6), for which the log2 fold change is inactive: -0.145.
